Source: PMC12540686
No constants are given. Whether binding was seen depends on the method and setting. Binding seen in cells or lysates may run through a third protein.

Molecular target: GST-PIM
Assay: pull-down; GST fusion proteins bound to glutathione sepharose beads as baits, incubated with third instar larval brain extracts for 1 h at 4 °C in 20 mM Hepes KOH, 20 mM NaF, 0.8% NP40; western blot with anti-Dm0 or anti-LamC; only the target purified

B1: A/C-type lamin C (LamC) (protein, UniProt Q03427 1-621)
chain: MSARRVTLNTRVSRASTSTPVGGASTSSRVGATSPTSPTRTSRQQEKEELQHLNDRLACYIDRMRNLENENSRLTQELNLAQDTVNRETSNLKAVYEKELAAARKLLDETAKEKAKLEIDIKRLWEENDDLKPRLDKKTKEATVAENNARLYENRYNEVNGKYNQSLADRKKFEDQAKELALENERLRRQLDDLRKQLEAETLARVDLENQNQSLREELAFKDQVHTQELTETRSRRQIEISEIDGRLSRQYEAKLQQSLQELRDQYEGQMRINREEIELLYDNEIQNLKAAANRAAQGSALATEEVRLMRTKIDGLNAKLQNLEDTNAGLNARIRELENLLDTERQRHNQYIASLEAELQRMRDEMAHQLQEYQGLMDIKVSLDLEIAAYDKLLCGEERRLNIESPGRPTTDSGISSNGSHLTASASSRSGRVTPSGRRSATPGISGSSAVKRRRTVIDESEDRTLSEYSVNAAAKGDLEIIEADVEGRFIKLHNKGTEEINLTGWQLTRIAGDEELAFKFSRGSKVLGGASVTIWSVDAGTAHDPPNNLVMKKKWPVANSMRSVLANADKEDVASYDRVRANVSSHTSRHRSSGTPSTGFTLGSGAGSTGVRSLFSLLF
  binding: no binding
